No constants are given. Whether binding was seen depends on the method and setting. Binding seen in cells or lysates may run through a third protein. Some results given as binding are weak or reduced against the parent protein; the word gives no strength. Sequences can lack the tags named with a protein.
Tests used:
[1] = target: T1, MAC3A-CFP (P35S-MAC3A-CFP) (Arabidopsis thaliana) (UniProt Q94BR4); assay: co-IP; MAC3A-CFP precipitated with anti-GFP microbeads from total nuclear extract of P35S-MAC3A-CFP mac3a mac3b plants; western blot with anti-GFP and anti-AtCDC5; Col-0 as control
T1 sequence: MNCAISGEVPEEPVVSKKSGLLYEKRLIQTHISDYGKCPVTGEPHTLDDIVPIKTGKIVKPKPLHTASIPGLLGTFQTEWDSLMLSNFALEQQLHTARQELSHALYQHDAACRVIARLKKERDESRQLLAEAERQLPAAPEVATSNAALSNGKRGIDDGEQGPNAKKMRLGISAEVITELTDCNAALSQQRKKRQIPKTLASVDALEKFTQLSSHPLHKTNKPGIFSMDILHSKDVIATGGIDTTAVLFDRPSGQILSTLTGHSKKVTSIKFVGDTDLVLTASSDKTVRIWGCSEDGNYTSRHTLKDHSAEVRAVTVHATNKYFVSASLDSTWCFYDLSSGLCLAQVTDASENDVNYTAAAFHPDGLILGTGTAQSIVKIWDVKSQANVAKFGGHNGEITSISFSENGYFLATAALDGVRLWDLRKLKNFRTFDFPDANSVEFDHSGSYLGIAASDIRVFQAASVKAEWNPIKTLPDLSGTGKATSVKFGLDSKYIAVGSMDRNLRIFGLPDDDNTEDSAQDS

[2] = target: T2, MAC3A-HA (P35S-MAC3A-HA) (Arabidopsis thaliana) (UniProt Q94BR4); assay: co-IP; MAC3A-HA precipitated with anti-HA microbeads from nuclear extract (NE-2 with 100 mM NaCl, 0.2% Triton X-100) of about 15 g leaf tissue of P35S-MAC3A-HA mac3a mac3b plants; washes with 150 mM NaCl; western blot with anti-HA and anti-AtCDC5; Col-0 as control
T2 sequence: T1 sequence

B1: AtCDC5/MAC1; R2-R3 Myb transcription factor (protein, UniProt P92948 1-844)
chain: MRIMIKGGVWKNTEDEILKAAVMKYGKNQWARISSLLVRKSAKQCKARWYEWLDPSIKKTEWTREEDEKLLHLAKLLPTQWRTIAPIVGRTPSQCLERYEKLLDAACTKDENYDAADDPRKLRPGEIDPNPEAKPARPDPVDMDEDEKEMLSEARARLANTRGKKAKRKAREKQLEEARRLASLQKRRELKAAGIDGRHRKRKRKGIDYNAEIPFEKRAPAGFYDTADEDRPADQVKFPTTIEELEGKRRADVEAHLRKQDVARNKIAQRQDAPAAILQANKLNDPEVVRKRSKLMLPPPQISDHELEEIAKMGYASDLLAENEELTEGSAATRALLANYSQTPRQGMTPMRTPQRTPAGKGDAIMMEAENLARLRDSQTPLLGGENPELHPSDFTGVTPRKKEIQTPNPMLTPSMTPGGAGLTPRIGLTPSRDGSSFSMTPKGTPFRDELHINEDMDMHESAKLERQRREEARRSLRSGLTGLPQPKNEYQIVAQPPPEESEEPEEKIEEDMSDRIAREKAEEEARQQALLKKRSKVLQRDLPRPPAASLAVIRNSLLSADGDKSSVVPPTPIEVADKMVREELLQLLEHDNAKYPLDDKAEKKKGAKNRTNRSASQVLAIDDFDENELQEADKMIKEEGKFLCVSMGHENKTLDDFVEAHNTCVNDLMYFPTRSAYELSSVAGNADKVAAFQEEMENVRKKMEEDEKKAEHMKAKYKTYTKGHERRAETVWTQIEATLKQAEIGGTEVECFKALKRQEEMAASFRKKNLQEEVIKQKETESKLQTRYGNMLAMVEKAEEIMVGFRAQALKKQEDVEDSHKLKEAKLATGEEEDIAIAMEASA
B1 was tested, and the binding [1] was “binds” and the binding [2] was “binds”.
